Experimental findings from PMC5558740 are described below.

Protein sequences, listed by entry. Tags and fused reporters are not part of them. Lines headed by an entry give the natural chain unless they say otherwise; changes in a name come on top.
UniProt P78423: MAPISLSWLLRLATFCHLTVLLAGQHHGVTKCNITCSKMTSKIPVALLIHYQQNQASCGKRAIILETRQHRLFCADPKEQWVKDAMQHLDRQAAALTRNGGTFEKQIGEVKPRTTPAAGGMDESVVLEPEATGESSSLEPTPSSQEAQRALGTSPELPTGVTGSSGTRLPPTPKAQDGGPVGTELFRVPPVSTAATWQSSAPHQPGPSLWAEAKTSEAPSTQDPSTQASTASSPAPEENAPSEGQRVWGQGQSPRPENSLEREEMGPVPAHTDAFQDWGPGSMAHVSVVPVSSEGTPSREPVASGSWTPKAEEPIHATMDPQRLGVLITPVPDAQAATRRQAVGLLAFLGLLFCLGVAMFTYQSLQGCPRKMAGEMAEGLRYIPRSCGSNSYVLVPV

The target of the test is T1, synthetic CX3CR1 peptide (aa 2-21) containing the binding region to CX3CL1.
T1 sequence (peptide): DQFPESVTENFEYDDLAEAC
The experiment in a line: affinity chromatography; CX3CR1 peptide coupled to CNBr-activated Sepharose 4B; protein (1 mg/ml) loaded in buffer A (0.1 M Mes pH 6.4, 0.5 mM MgCl2, 2 mM EGTA); bound protein eluted with 0.5 M NaCl in buffer A; fractions read by dot immunoblot; both purified.

Results are given in words; binding and its absence hold for the method and conditions named. Binding calls can cover weak binding; strength is not graded here.

Regarding “Full-length CX3CL1 peptide (from UniProt P78423) (ligand)”, the binding result is given as “binds”.
